The supplement of paper PMC10470496
Where a name gives a salt, the structure may show the parent alone. Some of the results follow. Many values rest on one well or one pass, so single values are uncertain.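 Three clinical Candida auris isolates (clades III, IV and I) from the CDC resistance isolate bank were grown in RPMI-1640 at 35°C. Growth was background-corrected OD600 relative to same-plate vehicle-only wells. Hits required over 50% inhibition in at least two strains and a plate-corrected B-score above 0.1.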

Assays:
Assay in all cases: growth relative to vehicle control (OD600 ratio) (fraction); higher = less inhibition
Conditions in all cases: 24 h
C. auris AR-384 = tested on: C. auris AR-384
C. auris AR-386 = tested on: C. auris AR-386
C. auris AR-387 = tested on: C. auris AR-387

Q: Oc1c(Cl)cc(Cl)c2cccnc12 [Chloroxine] was tested. Which growth (C. auris AR-384; 1 µM) did it give?
A: 0.18

Q: And the growth (C. auris AR-384; 10 µM)?
A: 0

Q: And the growth (C. auris AR-386; 1 µM)?
A: 0.02

Q: What about the growth (C. auris AR-386; 10 µM) of the same compound?
A: 0.02

Q: And the growth (C. auris AR-387; 1 µM)?
A: 0.09

Q: What about the growth (C. auris AR-387; 10 µM) of the same compound?
A: 0.1

Q: Which results are given for CCOC(=O)C1=C[C@@H](OC(CC)CC)[C@H](NC(C)=O)[C@@H](N)C1 [Oseltamivir Phosphate]?
A: growth (C. auris AR-384; 1 µM): 0.92; growth (C. auris AR-384; 10 µM): 1.07; growth (C. auris AR-386; 1 µM): 1.13; growth (C. auris AR-386; 10 µM): 0.68; growth (C. auris AR-387; 1 µM): 0.87; growth (C. auris AR-387; 10 µM): 0.92

Q: For CC/C(=C(\c1ccccc1)c1ccc(OCCN(C)C)cc1)c1ccccc1 [Tamoxifen], which growth (C. auris AR-384; 1 µM) is on record?
A: 0.69

Q: And the growth (C. auris AR-384; 10 µM)?
A: 1.17

Q: What about the growth (C. auris AR-386; 1 µM) of the same compound?
A: 1.04

Q: And the growth (C. auris AR-386; 10 µM)?
A: 0.84

Q: What about the growth (C. auris AR-387; 1 µM) of the same compound?
A: 0.87

Q: What about the growth (C. auris AR-387; 10 µM) of the same compound?
A: 0.89

Q: With COc1cc(Nc2ncc(F)c(Nc3ccc4c(n3)N(COP(=O)(O)O)C(=O)C(C)(C)O4)n2)cc(OC)c1OC [Fostamatinib (R788)] as the compound, how does the growth (C. auris AR-384; 1 µM) read?
A: 1.05

Q: And the growth (C. auris AR-384; 10 µM)?
A: 0.91

Q: What about the growth (C. auris AR-386; 1 µM) of the same compound?
A: 1.05

Q: And the growth (C. auris AR-386; 10 µM)?
A: 0.96

Q: What about the growth (C. auris AR-387; 1 µM) of the same compound?
A: 0.99

Q: What about the growth (C. auris AR-387; 10 µM) of the same compound?
A: 1.15

Q: How did the growth (C. auris AR-384; 1 µM) turn out when CN1[C@@H]2CC[C@H]1C[C@@H](OC(c1ccccc1)c1ccccc1)C2 [Benztropine mesylate] was run?
A: 0.9

Q: What about the growth (C. auris AR-384; 10 µM) of the same compound?
A: 0.84

Q: And the growth (C. auris AR-386; 1 µM)?
A: 1.16

Q: And the growth (C. auris AR-386; 10 µM)?
A: 0.83

Q: What about the growth (C. auris AR-387; 1 µM) of the same compound?
A: 0.83

Q: And the growth (C. auris AR-387; 10 µM)?
A: 1.04

Q: What does the source list for O=C(O)CCC(=O)Nc1ccc(S(=O)(=O)Nc2nccs2)cc1 [Succinylsulfathiazole]?
A: growth (C. auris AR-384; 1 µM): 0.79; growth (C. auris AR-384; 10 µM): 0.9; growth (C. auris AR-386; 1 µM): 0.82; growth (C. auris AR-386; 10 µM): 0.66; growth (C. auris AR-387; 1 µM): 0.6; growth (C. auris AR-387; 10 µM): 0.6

Q: With CC(=O)Oc1cccc2c1C(=O)c1c(OC(C)=O)cc(C(=O)O)cc1C2=O [Diacerein] as the compound, how does the growth (C. auris AR-384; 1 µM) read?
A: 0.75

Q: What about the growth (C. auris AR-384; 10 µM) of the same compound?
A: 0.83

Q: What about the growth (C. auris AR-386; 1 µM) of the same compound?
A: 0.68

Q: And the growth (C. auris AR-386; 10 µM)?
A: 0.72

Q: And the growth (C. auris AR-387; 1 µM)?
A: 0.86

Q: What about the growth (C. auris AR-387; 10 µM) of the same compound?
A: 0.73

Q: How did the growth (C. auris AR-384; 1 µM) turn out when Nc1ccc(S(=O)(=O)Nc2ccnn2-c2ccccc2)cc1 [Sulfaphenazole] was run?
A: 0.92

Q: And the growth (C. auris AR-384; 10 µM)?
A: 0.84

Q: What about the growth (C. auris AR-386; 1 µM) of the same compound?
A: 0.83

Q: What about the growth (C. auris AR-386; 10 µM) of the same compound?
A: 0.88

Q: What about the growth (C. auris AR-387; 1 µM) of the same compound?
A: 0.63

Q: What about the growth (C. auris AR-387; 10 µM) of the same compound?
A: 0.74

Q: For Cn1cnc2c(F)c(Nc3ccc(Br)cc3Cl)c(C(=O)NOCCO)cc21 [Selumetinib (AZD6244)], which growth (C. auris AR-384; 1 µM) is on record?
A: 1.15

Q: And the growth (C. auris AR-384; 10 µM)?
A: 0.55

Q: And the growth (C. auris AR-386; 1 µM)?
A: 0.68

Q: What about the growth (C. auris AR-386; 10 µM) of the same compound?
A: 1.06

Q: What about the growth (C. auris AR-387; 1 µM) of the same compound?
A: 1.15

Q: What about the growth (C. auris AR-387; 10 µM) of the same compound?
A: 0.67

Q: Which results are given for OC[C@H]1OC(O)[C@H](O)[C@@H](O)[C@@H]1O (stereo partly drawn) [Dextrose]?
A: growth (C. auris AR-384; 1 µM): 0.98; growth (C. auris AR-384; 10 µM): 0.96; growth (C. auris AR-386; 1 µM): 0.61; growth (C. auris AR-386; 10 µM): 0.69; growth (C. auris AR-387; 1 µM): 1; growth (C. auris AR-387; 10 µM): 0.87

Q: How did the growth (C. auris AR-384; 1 µM) turn out when NC[C@@H]1O[C@H](O[C@H]2[C@@H](O)[C@H](O[C@@H]3[C@@H](O)[C@H](N)C[C@H](N)[C@H]3O[C@H]3O[C@H](CO)[C@@H](O)[C@H](O)[C@H]3N)O[C@@H]2CO)[C@H](N)[C@@H](O)[C@@H]1O [Paromomycin Sulfate] was run?
A: 0.51

Q: What about the growth (C. auris AR-384; 10 µM) of the same compound?
A: 1.15

Q: And the growth (C. auris AR-386; 1 µM)?
A: 0.93

Q: What about the growth (C. auris AR-386; 10 µM) of the same compound?
A: 0.88

Q: What about the growth (C. auris AR-387; 1 µM) of the same compound?
A: 0.88

Q: And the growth (C. auris AR-387; 10 µM)?
A: 0.9

Q: For COC(=O)N/N=C/c1c[n+]([O-])c2ccccc2[n+]1[O-] [Carbadox], which growth (C. auris AR-384; 1 µM) is on record?
A: 1.07

Q: And the growth (C. auris AR-384; 10 µM)?
A: 0.96

Q: What about the growth (C. auris AR-386; 1 µM) of the same compound?
A: 0.79

Q: What about the growth (C. auris AR-386; 10 µM) of the same compound?
A: 0.94

Q: What about the growth (C. auris AR-387; 1 µM) of the same compound?
A: 0.92

Q: What about the growth (C. auris AR-387; 10 µM) of the same compound?
A: 0.86

Q: With O=C(O)Cc1ccccc1Nc1c(Cl)cccc1Cl [Diclofenac Diethylamine] as the compound, how does the growth (C. auris AR-384; 1 µM) read?
A: 0.84

Q: What about the growth (C. auris AR-384; 10 µM) of the same compound?
A: 0.76

Q: And the growth (C. auris AR-386; 1 µM)?
A: 0.86

Q: What about the growth (C. auris AR-386; 10 µM) of the same compound?
A: 0.55

Q: What about the growth (C. auris AR-387; 1 µM) of the same compound?
A: 0.58

Q: What about the growth (C. auris AR-387; 10 µM) of the same compound?
A: 0.57

Q: How did the growth (C. auris AR-384; 1 µM) turn out when NC(=O)c1cn(Cc2c(F)cccc2F)nn1 [Rufinamide] was run?
A: 0.62

Q: And the growth (C. auris AR-384; 10 µM)?
A: 0.61

Q: And the growth (C. auris AR-386; 1 µM)?
A: 1.08

Q: What about the growth (C. auris AR-386; 10 µM) of the same compound?
A: 0.84

Q: And the growth (C. auris AR-387; 1 µM)?
A: 1.21

Q: What about the growth (C. auris AR-387; 10 µM) of the same compound?
A: 0.74

Q: For NS(=O)(=O)Cc1noc2ccccc12 [Zonisamide], which growth (C. auris AR-384; 1 µM) is on record?
A: 1.1

Q: What about the growth (C. auris AR-384; 10 µM) of the same compound?
A: 0.7

Q: And the growth (C. auris AR-386; 1 µM)?
A: 0.72

Q: What about the growth (C. auris AR-386; 10 µM) of the same compound?
A: 0.73

Q: What about the growth (C. auris AR-387; 1 µM) of the same compound?
A: 1.07

Q: And the growth (C. auris AR-387; 10 µM)?
A: 0.82

Q: How did the growth (C. auris AR-384; 1 µM) turn out when CC1(C)Cc2c(-c3ccccc3)c(-c3ccc(Cl)cc3)c(CC(=O)O)n2C1 [Licofelone] was run?
A: 0.92

Q: What about the growth (C. auris AR-384; 10 µM) of the same compound?
A: 0.87

Q: What about the growth (C. auris AR-386; 1 µM) of the same compound?
A: 0.66

Q: And the growth (C. auris AR-386; 10 µM)?
A: 0.88

Q: What about the growth (C. auris AR-387; 1 µM) of the same compound?
A: 0.76

Q: And the growth (C. auris AR-387; 10 µM)?
A: 0.64

Q: Which results are given for CN(C/C=C/C#CC(C)(C)C)Cc1cccc2ccccc12 [Terbinafine HCl]?
A: growth (C. auris AR-384; 1 µM): 0.56; growth (C. auris AR-384; 10 µM): 0.65; growth (C. auris AR-386; 1 µM): 0.39; growth (C. auris AR-386; 10 µM): 0.36; growth (C. auris AR-387; 1 µM): 0.4; growth (C. auris AR-387; 10 µM): 0.32

Q: How did the growth (C. auris AR-384; 1 µM) turn out when O=C1O[C@H]([C@@H](O)CO)C(O)=C1O [Vitamin C] was run?
A: 0.9

Q: What about the growth (C. auris AR-384; 10 µM) of the same compound?
A: 0.81

Q: And the growth (C. auris AR-386; 1 µM)?
A: 1.04

Q: And the growth (C. auris AR-386; 10 µM)?
A: 0.7

Q: And the growth (C. auris AR-387; 1 µM)?
A: 0.76

Q: And the growth (C. auris AR-387; 10 µM)?
A: 0.96
